System: Camellia oleifera 'Huaxin' 2n pollen
Assay: 2n pollen fertility rate (aceto-carmine staining) after precursor application and 45° C. high-temperature treatment of flower branches
Type: in vivo
Conditions: for K1 (sum of 2n pollen fertility rates at level 1 of the factor): level 1: DMTU 5 mg/L, mannitol 0.1 g/L, ascorbic acid 0.5 mg/L, brassinolide 2.0 mg/L, sucrose 5 g/L; for K2 (sum of 2n pollen fertility rates at level 2 of the factor): level 2: DMTU 10 mg/L, mannitol 0.5 g/L, ascorbic acid 1.0 mg/L, brassinolide 4.0 mg/L, sucrose 10 g/L; for K3 (sum of 2n pollen fertility rates at level 3 of the factor): level 3: DMTU 15 mg/L, mannitol 1.0 g/L, ascorbic acid 1.5 mg/L, brassinolide 6.0 mg/L, sucrose 15 g/L; for K4 (sum of 2n pollen fertility rates at level 4 of the factor): level 4: DMTU 20 mg/L, mannitol 2.0 g/L, ascorbic acid 2.0 mg/L, brassinolide 8.0 mg/L, sucrose 30 g/L; for Range (impact degree of the factor on 2n pollen fertility rate): range analysis of L16(4^5) orthogonal design; for optimal level (concentration) for 2n pollen fertility rate: range analysis of orthogonal design
Protocol: After the high-temperature treatment was released, Camellia oleifera grew naturally until anthers were pollinated. Pollen of each treatment was collected, and a temporary smear of the pollen was made by an aceto-carmine staining method and then photographed by an OlympusDP70 optical microscope; and a diameter of pollen in a temporary smear of each treatment was measured by Image J software, and a yield and a fertility rate of 2n pollen were counted.
Pollen stained red by aceto-carmine was counted as fertile pollen, and pollen not stained red by aceto-carmine was counted as infertile pollen (as shown in FIG. 3).
An occurrence frequency of 2n pollen was a ratio of an amount of 2n pollen to a total amount of pollen observed, and a fertility rate of 2n pollen was a ratio of an amount of fertile 2n pollen to a total amount of 2n pollen observed. […] When no high-temperature treatment is applied, an occurrence frequency of 2n pollen is 0.9%, and a fertility rate is 100%. • 2. […] Treatment conditions for 2n pollen in Camellia oleifera in the present disclosure: a leptotene stage to a pachytene stage of pollen mother cells, a style length: less than 2.57 mm, an induction temperature: 43° C. to 49° C., and an induction time: 3 h to 6 h.
Flower branches with a style length developing to 1.97 mm<L≤2.27 mm and pollen mother cells at a leptotene stage to a pachytene stage were selected as target flower branches, and DMTU solutions with different concentrations were applied to the target flower branches, respectively; and a flower branch not treated with a DMTU solution was adopted as a control.
The concentrations of the DMTU solutions were 1 mg/L, 5 mg/L, 10 mg/L, 15 mg/L, 20 mg/L, and 25 mg/L, respectively. Preparation method of a DMTU solution: DMTU was first dissolved with an appropriate amount of alcohol, and then water was added to a required concentration.
The above DMTU solutions with different concentrations each were sprayed on a flower branch, where a DMTU solution was evenly sprayed on a flower branch by a sprayer until there were condensed water droplets flowing down from leaves or flower buds; and each treatment was numbered and recorded (as shown in Table 3).
After each DMTU solution was applied, in order to avoid rapid evaporation of a solution on a leaf surface due to a high-temperature treatment, the whole flower branch was wrapped with a plastic film, and then the non-ex vivo tree branch bud heating device in the authorized patent (patent ZL200610113448.X) was immediately used to apply a 45° C. high-temperature treatment to each target flower branch for 4 h, namely, a high-temperature doubling treatment. A doubling treatment method was the same as the doubling treatment method in step 1.2 of Example 1.
After a high-temperature treatment was conducted for 4 h, a heating bag and a plastic film were removed to release the high-temperature treatment, and Camellia oleifera was allowed to grow naturally until anthers were pollinated. Pollen of each treatment was collected, and a temporary smear of the pollen was made by an aceto-carmine staining method and then photographed by an Olympus DP70 optical microscope; and a diameter of pollen was measured by Image J software, and an occurrence frequency and a fertility rate of 2n pollen were counted.
The above reagents were applied through spraying on a flower branch and injection into a flower bud. The spraying on a flower branch was as follows: a precursor solution was evenly sprayed on the flower branch by a sprayer until there were condensed water droplets flowing down from leaves or flower buds. The injection into a flower bud was as follows: a precursor solution was injected into the flower bud by a 5 mL syringe (0.5×20 mm injection needle) through a scale gap at a top of the flower bud until there were water droplets overflowing a surface of the flower bud. […]

Compound | K1 (sum of 2n pollen fertility rates at level 1 of the factor) | K2 (sum of 2n pollen fertility rates at level 2 of the factor) | K3 (sum of 2n pollen fertility rates at level 3 of the factor) | K4 (sum of 2n pollen fertility rates at level 4 of the factor) | Range (impact degree of the factor on 2n pollen fertility rate) | optimal level (concentration) for 2n pollen fertility rate
O=C1O[C@H]([C@@H](O)CO)C(O)=C1O [Ascorbic acid, ascorbic acid] | 321.86 | 333.68 | 324.16 | 320.95 | 3.18 | 1.0 mg/L
CC(C)[C@H](C)[C@@H](O)[C@H](O)[C@@H](C)[C@H]1CC[C@H]2[C@@H]3COC(=O)[C@H]4C[C@H](O)[C@H](O)C[C@]4(C)[C@H]3CC[C@]12C [Brassinolide, brassinolide] | 319.50 | 331.92 | 327.78 | 321.45 | 3.11 | 4.0 mg/L
CNC(=S)NC [DMTU, N,N′-Dimethylthiourea] | 312.90 | 350.14 | 324.48 | 313.13 | 9.31 | 10 mg/L
OC[C@@H](O)[C@@H](O)[C@H](O)[C@H](O)CO [Mannitol, mannitol] | 326.57 | 331.81 | 323.93 | 318.34 | 3.37 | 500 mg/L
OC[C@H]1O[C@@](CO)(O[C@H]2O[C@H](CO)[C@@H](O)[C@H](O)[C@H]2O)[C@@H](O)[C@@H]1O [Sucrose, sucrose] | 323.46 | 323.81 | 331.63 | 321.75 | 2.47 | 15000 mg/L
